Measurements taken from US20230265614A1, “WATER INSOLUBLE, HIGH MELTING POINT SACCHARIDE FATTY ACID ESTERS (SFAE)” (GREENTECH GLOBAL PTE. LTD., priority 2021, published 2023).

Experiments:
[1] = Folded KIT Test (180° fold, grease on crease) on SFAE coated base paper; details: paper folded 180°, reopened, SFAE coated Southworth base paper
Experimental: (§1) A Southworth paper was chosen as a base paper. The base paper was approximately a 40# sheet with a Gurley porosity running around 200 sec.
(§2) Three different specific SFAE were prepared, dissolved in an organic solvent (a solution of 70% ethanol, and 30% chloroform), and applied to the base paper via hand drawdown at the coating weight listed in Table 2. The coating weight is the weight (pounds/ton) is the weight of the specific SFAE after the organic solvent was evaporated. Once the papers were dried and conditioned, the SFAE coated base papers were tested for water resistance and lipid resistance (OGR) using various tests, and compared to uncoated base paper as a control.
(§3) Oil and grease resistance was tested using several tests: • (i) a 3 M KIT Test (Tappi Standard Test Method T 559 “Grease resistance”), • (ii) a Folded KIT Test, wherein the paper is subjected to a 180° fold, reopoend, and then grease is placed on the resulting crease according to the same 3 M KIT Test. • (iii) oil Cobb tests using vegetable oil adapted from Tappi Standard Test Method T 441 om-20 at room temperature of about 20-23° C. and at 100° C.; and • (iv) an Oil Drop test in a 100° C. oven.

[2] = Oil Cobb test using vegetable oil at 100° C. on SFAE coated base paper; details: SFAE coated Southworth base paper
Experimental: as §1, §2, §3

[3] = Oil Cobb test using vegetable oil at room temperature on SFAE coated base paper; details: room temperature about 20-23° C., SFAE coated Southworth base paper
Experimental: as §1, §2, §3

[4] = 3 M KIT Test (Tappi T 559 Grease resistance) on SFAE coated base paper; details: SFAE coated Southworth base paper
Experimental: as §1, §2, §3

Substance	Folded KIT [1]	100° C. Oil Cobb (60 sec) [2]	Oil Cobb (50 sec) [3]	KIT [4]
trehalose dilaurate	Pass 3 Fail 3	4.8	3.2	Pass 6 PH 7 Fail 8
trehalose dipalmitate	Fail <3	14.4	4	Pass 5 PH 6 Fail 7
trehalose distearate	Pass 3 Fail 4	6.4	4.8	Pass 6 Fail 7
